We go through one molecule from patent US20090175886A1 (Bristol-Myers Squibb, published 2009).

By UniProt entry, the sequences of proteins in these tests, tags left out. Residues count along the entry.
UniProt P28908, residues 19-595: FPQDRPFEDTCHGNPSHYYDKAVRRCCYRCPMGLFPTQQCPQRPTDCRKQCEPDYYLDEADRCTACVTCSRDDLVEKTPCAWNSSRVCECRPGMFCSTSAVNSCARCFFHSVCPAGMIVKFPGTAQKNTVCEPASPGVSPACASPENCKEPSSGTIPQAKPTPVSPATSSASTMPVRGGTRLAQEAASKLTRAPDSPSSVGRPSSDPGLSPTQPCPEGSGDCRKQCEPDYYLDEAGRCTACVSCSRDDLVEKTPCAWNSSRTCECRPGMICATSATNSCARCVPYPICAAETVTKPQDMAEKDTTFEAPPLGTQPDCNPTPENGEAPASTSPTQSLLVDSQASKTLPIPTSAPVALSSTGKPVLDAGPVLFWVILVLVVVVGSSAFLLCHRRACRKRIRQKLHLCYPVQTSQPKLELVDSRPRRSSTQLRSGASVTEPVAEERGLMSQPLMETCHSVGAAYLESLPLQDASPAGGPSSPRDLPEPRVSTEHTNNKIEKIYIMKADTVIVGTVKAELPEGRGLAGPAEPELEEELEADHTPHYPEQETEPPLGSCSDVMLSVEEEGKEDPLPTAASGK

These are yes or no findings as the source states them, for the method shown. Some binding calls cover weakened binding; strength is not graded here.

Experiment [1] has as its target human CD30 expressed on cells (L540, L428, L1236, Karpas cell lines; activated human peripheral blood cells) (human) (UniProt P28908). As to the kind of experiment: flow cytometry on L540 cells (discussion of Example 7). For orientation: Flow cytometry measures light scatter and fluorescence of single cells or particles in a stream.
The target is the same in experiment [2]. The experiment is described as follows: flow cytometry on CD30-expressing L540 cells, FITC-labelled goat anti-human secondary antibody.

B1: 5F11 LEX^Opt mAb (glyco-optimized 5F11 produced in Lemna minor with FucT/XylT RNAi, vector MDXA04) (antibody, V domains shown)
VH: QVQLQQWGAGLLKPSETLSLTCAVYGGSFSAYYWSWIRQPPGKGLEWIGDINHGGGTNYNPSLKSRVTISVDTSKNQFSLKLNSVTAADTAVYYCASLTAYWGQGSLVTVSS
VL: DIQMTQSPTSLSASVGDRVTITCRASQGISSWLTWYQQKPEKAPKSLIYAASSLQSGVPSRFSGSGSGTDFTLTISSLQPEDFATYYCQQYDSYPITFGQGTRLEIK
notes: N-glycans at Asn 297 are 95.8% GnGn (G0), with no fucosyl or xylosyl; also called MDXA04 derived mAb; glyco-optimized anti-CD30 mAb
With B1, the binding entry in experiment [1] and in experiment [2] was “binds” each time.
